Laboratory results taken from patent US10550155B2, “Anticancer peptides” (priority 2018, dated 2020).
“And” between values parts separate entries of the source, which are not always exact repeats. Equal entries are not always repeated. “Also recorded” adds a separate entry of the source. At least one peptide structure holds a part that was inferred or is arguable (an end, a ring closure or a residue). Where a SMILES comes first, the peptide text is derived from it. Bridges are numbered along the chain shown (N, C = ends). Roman numbers before positions name the chains, in order. [ ]: non-standard residue; d: D form.

Assays:
[1] = tested on: MCF-7 human breast cancer cell line; assay: MTT cytotoxicity assay, MCF-7 cells; assay type: cell-based
Method: (§1) The cytotoxic as well as antiproliferative effect of peptides was determined using MTT [3-(4, 5-dimethylthiazol-2-yl)-2, 5-diphenyl tetrazolium bromide] colorimetric assay. MCF-7, NIH-3T3, HeLa and H460 cells were cultured and after confluency, cells were used to test the cytotoxicity by MTT assay. Briefly (3×10^4/mL) of MCF-7 and (2×10^4/mL) cells of NIH-3T3, HeLa and H460 were seeded in 96-wells plate and incubated at 37° C. in 5% CO2 for 24 h. The MCF-7 cells were then treated with different doses of peptides and re-incubated in 5% CO2 at 37° C. for 48 hours. […] Experiment was performed three times and all doses were repeated in triplicate and the calculations were done using formula for percent inhibition.

H460 cells = assay: MTT cytotoxicity assay, H460 cells; assay type: cell-based
Method: as §1

[2] = tested on: β-actin protein in MCF-7 cells; assay: Immunocytochemistry of MCF-7 cells for β-actin expression; assay type: cell-based, human; details: 25, 50 and 100 μM, 48 hours
[3] = tested on: survivin mRNA in MCF-7 cells; assay: Real time PCR gene expression of survivin in MCF-7 cells; assay type: cell-based, human
[4] = tested on: Bcl-2 mRNA in MCF-7 cells; assay: Real time PCR gene expression of Bcl-2 in MCF-7 cells; assay type: cell-based, human; details: for Bcl-2 gene expression (Mean ± St. Dev): 24 hours, normalized to GAPDH, control 1.00
MCF-7 cells [5] = assay: Nuclear staining of MCF-7 cells with DAPI; assay type: cell-based, human; details: 25, 50 and 100 μM, with increasing dose
Bax mRNA in MCF-7 cells = assay: Real time PCR gene expression of Bax in MCF-7 cells; assay type: cell-based, human; details: for Bax gene expression (Mean ± St. Dev): 24 hours, normalized to GAPDH, control 1.00; for Ratio of Bax/Bcl-2 gene expression: MCF-7, control 0.99
[6] = tested on: Bax protein in MCF-7 cells; assay: Immunocytochemistry of MCF-7 cells for Bax expression; assay type: cell-based, human; details: 25, 50 and 100 μM, 48 hours
[7] = tested on: Bcl-2 protein in MCF-7 cells; assay: Immunocytochemistry of MCF-7 cells for Bcl-2 expression; assay type: cell-based, human; details: 25, 50 and 100 μM, 48 hours
[8] = tested on: survivin protein in MCF-7 cells; assay: Immunocytochemistry of MCF-7 cells for survivin expression; assay type: cell-based, human; details: 25, 50 and 100 μM, 48 hours
MCF-7 cells [9] = assay: DNA fragmentation (TUNEL) assay in MCF-7 cells; assay type: cell-based, human; details: 48 hours; for DNA fragmentation (fluorescein labeling, TUNEL): MCF-7, 25, 50 and 100 μM; for Nature of cell death: MCF-7, TUNEL, 25, 50 and 100 μM
[10] = tested on: caspase-3 mRNA in MCF-7 cells; assay: Real time PCR gene expression of caspase-3 in MCF-7 cells; assay type: cell-based, human; details: in comparison with untreated control cells, different doses

CC[C@H](C)[C@H](NC(=O)[C@@H](C)NC(=O)[C@H](CO)NC(=O)[C@H](CC(C)C)NC(=O)[C@@H](N)Cc1ccccc1)C(=O)N[C@H](C(=O)N[C@H](C)C(=O)N[C@@H](CCSC)C(=O)N[C@@H](CC(C)C)C(=O)N[C@H](C)C(=O)N[C@@H](CCCCN)C(=O)N[C@@H](CC(C)C)C(=O)N[C@@H](Cc1ccccc1)C(N)=O)C(C)C [compound 6, F-L-S-a-I-V-a-M-L-a-K-L-F] (H-FLS[dA]IV[dA]ML[dA]KLF-NH2)
Activity against MCF-7 cell line (in words) [1]: selectively active

CC[C@H](C)[C@H](NC(=O)[C@@H](C)NC(=O)[C@H](CO)NC(=O)[C@H](CC(C)C)NC(=O)[C@@H](N)Cc1ccccc1)C(=O)N[C@H](C(=O)N[C@H](C)C(=O)N[C@@H](CCSC)C(=O)N[C@@H](CC(C)C)C(=O)NCC(=O)N[C@@H](CCCCN)C(=O)N[C@@H](CC(C)C)C(=O)N[C@@H](Cc1ccccc1)C(N)=O)C(C)C [compound 5, F-L-S-a-I-V-a-M-L-G-K-L-F] (H-FLS[dA]IV[dA]MLGKLF-NH2)
Activity against H460 cell line (in words) (H460 cells): active | Activity against MCF-7 cell line (in words) [1]: active

CC[C@H](C)[C@H](NC(=O)CNC(=O)[C@H](CO)NC(=O)[C@H](CC(C)C)NC(=O)[C@@H](N)Cc1ccccc1)C(=O)N[C@H](C(=O)N[C@H](C)C(=O)N[C@@H](CCSC)C(=O)N[C@@H](CC(C)C)C(=O)NCC(=O)N[C@@H](CCCCN)C(=O)N[C@@H](CC(C)C)C(=O)N[C@@H](Cc1ccccc1)C(N)=O)C(C)C [compound 3, F-L-S-G-I-V-a-M-L-G-K-L-F] (H-FLSGIV[dA]MLGKLF-NH2)
Activity against MCF-7 cell line (in words) [1]: selectively active

CC[C@H](C)[C@H](NC(=O)CNC(=O)[C@H](CO)NC(=O)[C@H](CC(C)C)NC(=O)[C@@H](N)Cc1ccccc1)C(=O)N[C@H](C(=O)NCC(=O)N[C@@H](CCSC)C(=O)N[C@@H](CC(C)C)C(=O)N[C@H](C)C(=O)N[C@@H](CCCCNC(=O)[C@H](CC(C)C)NC(=O)[C@H](Cc1ccccc1)NC(=O)[C@H](CCCCN)NC(=O)[C@H](CCC(N)=O)NC(=O)[C@H](Cc1ccc(O)cc1)NC(=O)[C@H](C)NC(=O)[C@H](C)NC(=O)[C@H](CCC(=O)O)NC(=O)[C@H](CC(C)C)NC(=O)[C@@H](N)Cc1c[nH]c2ccccc12)C(=O)N[C@@H](CC(C)C)C(=O)N[C@@H](Cc1ccccc1)C(N)=O)C(C)C [conjugate 7] (I: H-FLSGIVGML[dA]KLF-NH2 / II: H-WLEAAYQKFL; amide I:11-II:C)
β-actin cytoskeleton structure (in words) [2]: deterioration of the cytoskeleton structure | Survivin mRNA expression (in words) ([3]; 25 μM): no change | Survivin expression decreased down to ([3]; 50 and 100 μM): 0.7 folds of control cells | Bcl-2 gene expression (Mean ± St. Dev) ([4]; 25 μM): 1.20 ± 0.08 | Bcl-2 expression decreased down to ([4]; 50 μM): 0.7 folds of control cells | Bcl-2 gene expression (Mean ± St. Dev) ([4]; 50 μM): 0.63 ± 0.11 | Bcl-2 expression decreased down to ([4]; 100 μM): 0.6 folds of control cells | Bcl-2 gene expression (Mean ± St. Dev) ([4]; 100 μM): 0.57 ± 0.17 | Bcl-2 mRNA expression (in words) ([4]; MCF-7 cells): down-regulates the mRNA expression of Bcl-2 significantly | Nuclear morphology by DAPI (in words) (MCF-7 cells [5]): decrease in cell number, nuclear condensation and formation of apoptotic bodies | Bax gene expression (Mean ± St. Dev) (Bax mRNA in MCF-7 cells; 25 μM): 0.88 ± 0.06 | Ratio of Bax/Bcl-2 gene expression (Bax mRNA in MCF-7 cells; 25 μM): 0.73 | Bax gene expression (Mean ± St. Dev) (Bax mRNA in MCF-7 cells; 50 μM): 0.75 ± 0.01 | Ratio of Bax/Bcl-2 gene expression (Bax mRNA in MCF-7 cells; 50 μM): 1.20 | Bax gene expression (Mean ± St. Dev) (Bax mRNA in MCF-7 cells; 100 μM): 0.74 ± .03 | Ratio of Bax/Bcl-2 gene expression (Bax mRNA in MCF-7 cells; 100 μM): 1.30 | Bax mRNA expression (in words) (Bax mRNA in MCF-7 cells; all test doses): no significant change | Bax protein expression (in words) [6]: significant increase in Bax protein expression | Bcl-2 protein expression (in words) [7]: exactly correlates with mRNA expression | Activity against MCF-7 cell line (in words) [1]: targeted action on MCF-7; also recorded: active only against MCF-7 | Survivin protein expression (in words) [8]: decreased | DNA fragmentation (fluorescein labeling, TUNEL) (MCF-7 cells [9]): high levels of DNA fragmentation; also recorded: highly fragmented DNA | Nature of cell death (MCF-7 cells [9]): apoptosis; also recorded: apoptotic | Up-regulation of caspase-3 gene expression [10]: 4 to 6 folds and 4 to 5 folds

CC[C@H](C)[C@H](NC(=O)CNC(=O)[C@H](CO)NC(=O)[C@H](CC(C)C)NC(=O)[C@@H](N)Cc1ccccc1)C(=O)N[C@H](C(=O)NCC(=O)N[C@@H](CCSC)C(=O)N[C@@H](CC(C)C)C(=O)N[C@H](C)C(=O)N[C@@H](CCCCN)C(=O)N[C@@H](CC(C)C)C(=O)N[C@@H](Cc1ccccc1)C(N)=O)C(C)C [peptide 4, F-L-S-G-I-V-G-M-L-a-K-L-F] (H-FLSGIVGML[dA]KLF-NH2)
DNA fragmentation (fluorescein labeling, TUNEL) (MCF-7 cells [9]): extremely low level of DNA fragmentation | Nature of cell death (MCF-7 cells [9]): necrosis | Nature of cell death (MCF-7 cells [9]; listed as SEQ ID NO: 4): necrotic; also recorded: necrosis
